Measurements as given in doi:10.1101/2020.05.14.095554.
These are yes or no findings as the source states them, for the method shown. In cells and extracts the contact can be indirect.

The chains behind the UniProt entries cited, without tags or fusion partners.
UniProt P28033: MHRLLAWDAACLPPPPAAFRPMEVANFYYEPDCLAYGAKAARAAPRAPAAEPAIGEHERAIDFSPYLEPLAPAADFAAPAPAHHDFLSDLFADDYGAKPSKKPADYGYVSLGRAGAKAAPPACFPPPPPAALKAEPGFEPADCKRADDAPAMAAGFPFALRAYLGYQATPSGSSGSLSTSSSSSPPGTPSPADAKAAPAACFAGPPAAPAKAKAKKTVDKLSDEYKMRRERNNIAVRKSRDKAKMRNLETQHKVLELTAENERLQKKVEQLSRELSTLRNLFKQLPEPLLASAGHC

Biological target: T1, B cell receptor associated protein 31 (UniProt Q61335)
T1 sequence: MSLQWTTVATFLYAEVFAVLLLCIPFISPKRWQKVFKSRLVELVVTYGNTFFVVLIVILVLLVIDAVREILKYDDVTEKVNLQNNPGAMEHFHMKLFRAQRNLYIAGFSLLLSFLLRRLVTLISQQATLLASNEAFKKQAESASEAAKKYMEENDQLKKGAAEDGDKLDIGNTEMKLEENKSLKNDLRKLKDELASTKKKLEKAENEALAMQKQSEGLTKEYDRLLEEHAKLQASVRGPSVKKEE
Test: co-IP

binding: no binding
Sequence: CCAAT enhancer binding proteins β (from UniProt P28033 1-296)
